For assay [1], the target named is KLHL4ΔCUL3 (FLAG-tagged) (human) (UniProt Q9C0H6). Description: affinity purification with mass spectrometry.
The target in assay [2] is T1, KLHL4^FLAG (wild type) (human) (UniProt Q9C0H6).
T1 sequence: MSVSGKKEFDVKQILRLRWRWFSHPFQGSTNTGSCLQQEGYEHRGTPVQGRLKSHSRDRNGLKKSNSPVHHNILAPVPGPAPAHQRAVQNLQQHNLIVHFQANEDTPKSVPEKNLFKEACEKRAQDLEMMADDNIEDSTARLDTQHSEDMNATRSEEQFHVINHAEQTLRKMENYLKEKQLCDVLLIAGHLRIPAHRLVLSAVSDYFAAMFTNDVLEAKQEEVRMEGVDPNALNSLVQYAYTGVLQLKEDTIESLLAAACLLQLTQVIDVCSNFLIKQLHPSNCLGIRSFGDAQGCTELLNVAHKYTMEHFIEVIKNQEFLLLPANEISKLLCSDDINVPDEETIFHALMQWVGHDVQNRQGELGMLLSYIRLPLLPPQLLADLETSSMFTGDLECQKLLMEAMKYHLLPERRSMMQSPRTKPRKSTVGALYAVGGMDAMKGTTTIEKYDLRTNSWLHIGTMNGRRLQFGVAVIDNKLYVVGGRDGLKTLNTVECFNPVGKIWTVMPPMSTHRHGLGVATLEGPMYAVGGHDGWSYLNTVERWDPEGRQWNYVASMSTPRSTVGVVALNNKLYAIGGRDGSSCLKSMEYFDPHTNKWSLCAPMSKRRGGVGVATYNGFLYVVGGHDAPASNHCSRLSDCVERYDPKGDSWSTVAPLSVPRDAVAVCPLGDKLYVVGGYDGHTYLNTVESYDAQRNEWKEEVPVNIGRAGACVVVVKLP
Description: affinity purification with mass spectrometry.

Amino acid sequences for entries named in this document (tags omitted).
UniProt Q9Y2X7: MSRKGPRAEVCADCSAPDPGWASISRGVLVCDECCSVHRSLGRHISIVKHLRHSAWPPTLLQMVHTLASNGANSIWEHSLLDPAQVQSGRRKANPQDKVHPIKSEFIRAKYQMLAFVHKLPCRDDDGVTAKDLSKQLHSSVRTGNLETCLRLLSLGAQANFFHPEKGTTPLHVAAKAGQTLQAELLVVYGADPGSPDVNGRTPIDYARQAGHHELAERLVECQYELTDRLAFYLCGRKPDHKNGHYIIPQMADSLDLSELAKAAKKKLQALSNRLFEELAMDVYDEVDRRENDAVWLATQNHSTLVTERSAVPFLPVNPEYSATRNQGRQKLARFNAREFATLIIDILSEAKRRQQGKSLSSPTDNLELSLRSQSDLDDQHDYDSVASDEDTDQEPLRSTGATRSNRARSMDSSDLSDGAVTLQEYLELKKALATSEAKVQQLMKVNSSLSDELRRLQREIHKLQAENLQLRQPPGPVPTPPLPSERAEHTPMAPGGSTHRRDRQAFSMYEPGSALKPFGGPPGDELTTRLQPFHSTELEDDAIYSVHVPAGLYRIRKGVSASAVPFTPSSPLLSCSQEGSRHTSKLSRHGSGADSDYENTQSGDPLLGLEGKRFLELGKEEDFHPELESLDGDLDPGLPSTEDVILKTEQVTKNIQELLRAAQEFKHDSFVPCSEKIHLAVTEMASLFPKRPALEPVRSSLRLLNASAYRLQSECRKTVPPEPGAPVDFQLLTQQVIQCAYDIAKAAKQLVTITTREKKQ

Results on one substance are retold here after article doi:10.1101/2022.09.26.509591.

These are yes or no findings as the source states them, for the method shown. Binding seen in cells or lysates may run through a third protein. These calls come from enrichment with a bait or labelling near it, and not all partners need be listed. For some assays here: Where a sequence is shown, tags or fusion partners need not be part of it.

Consider “GIT1 (endogenous) (from UniProt Q9Y2X7 1-761)”, for which the binding entry in assay [1] and in assay [2] was “binds” in each case.
